± gives the standard deviation of the averaged measurements. The list shows a part of the results, in another mix than the full data.

In the supplement of paper PMC6279402 one finds relative viability data, which are given here for 1 molecule.

This test deals with A549. The experiment in a line: relative viability (normalised to negative control = 1, bortezomib = 0) (fraction); higher = less cytotoxic. The following applies: inflammatory serum-free RHB-A with cytokines + LPS, 5 d + 24 h CellTiter-Blue. The protocol: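 A549 KRAS-mutant NSCLC cells, pre-treated 5 µM GSK126 or vehicle (DMSO), were seeded at 250 cells/well in 384-well plates in serum-free RHB-A medium with inflammatory cytokines/LPS and treated with Selleck kinase inhibitor and NCI oncology compounds at 30 or 300 nM in triplicate, refreshed at 48 h. Viability was read by CellTiter-Blue after 5 d plus 24 h and normalised per plate with cellHTS2 (mean of bortezomib positive control = 0, mean of negative control = 1).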

Take `Cc1ccccc1-n1c(Cn2nc(-c3cccc(O)c3)c3c(N)ncnc32)nc2cccc(C)c2c1=O`: the relative viability is 0.914 ± 0.15 (compound 30 nM, GSK126 pretreatment: 5 uM GSK126); 0.937 ± 0.14 (compound 30 nM, GSK126 pretreatment: none (vehicle)); 0.96 ± 0.044 (compound 300 nM, GSK126 pretreatment: 5 uM GSK126); 0.929 ± 0.056 (compound 300 nM, GSK126 pretreatment: none (vehicle)).
